Among the data in publication PMC3219680 (2011) are binding values, retold here.

No constants are given. Whether binding was seen depends on the method and setting.

The target in the test is T1, Mouse Cerberus 1 homologue (mCer1) recombinant protein (mouse) (UniProt O55233).
T1 sequence: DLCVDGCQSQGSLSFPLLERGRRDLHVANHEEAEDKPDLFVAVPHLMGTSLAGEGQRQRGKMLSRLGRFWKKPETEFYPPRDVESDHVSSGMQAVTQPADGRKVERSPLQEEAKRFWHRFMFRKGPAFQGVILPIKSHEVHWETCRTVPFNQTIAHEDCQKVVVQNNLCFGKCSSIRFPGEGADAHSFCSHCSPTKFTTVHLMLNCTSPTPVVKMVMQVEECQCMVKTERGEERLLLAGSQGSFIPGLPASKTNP
Put plainly: SPR; BIAcore 2000; mCer1 immobilised on a CM5 chip by amine group; hBMP2, hBMP4 or hGDNF (1 µg/ml) flowed over; 25°C; HBS-P buffer (10 mM HEPES, 150 mM NaCl, 0.005% Tween 20, pH 7.4); triplicate; both purified. (Surface plasmon resonance follows binding to a sensor surface in real time, without labels.)

B1: hGDNF (ligand, UniProt P39905 78-211)
chain: SPDKQMAVLPRRERNRQAAAANPENSRGKGRRGQRGKNRGCVLTAIHLNVTDLGLGYETKEELIFRYCSGSCDAAETTYDKILKNLSRNRRLVSDKVGQACCRPIAFDDDLSFLDDNLVYHILRKHSAKRCGCI
Regarding B1, the binding result is listed as “no binding (tested: 1 µg/ml)”.
